Laboratory results published in patent publication US20170363632A1, “Biomarker Kit for Metastatic Breast Cancer Prognosis and Uses Thereof” (University of Maryland, Baltimore, priority 2016, published 2017).
These are yes or no findings as the source states them, for the method shown. Some results given as binding are weak or reduced against the parent protein; the word gives no strength. Sequences can lack the tags named with a protein.

Chains of the proteins cited; added tags and fusions are not shown. Residues count along the entry.
UniProt O00459, residues 4-80: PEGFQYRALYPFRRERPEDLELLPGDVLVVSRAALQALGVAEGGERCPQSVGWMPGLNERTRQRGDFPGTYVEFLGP

How the values were obtained:
HIS-PI3K/p85-SH3 (human) [1] = molecular target: HIS-PI3K/p85-SH3 (human) (UniProt O00459); experiment: GST pull-down, immunoblot with His-tag antibody
HIS-PI3K/p85-SH3 (human) [2] = molecular target: HIS-PI3K/p85-SH3 (human) (UniProt O00459); experiment: GST pull-down, immunoblot with His-tag antibody (FIG. 6C)

binding (HIS-PI3K/p85-SH3 (human) [1]): binds
binding (HIS-PI3K/p85-SH3 (human) [2]): binds
B1: GST-obscurin-PH (protein, human, UniProt Q5VST9 5895-6004, looked up, not shown: a dimerising Fc or GST)
chain: EPIRQGHFIVWEGAPGARMPWKGHNRHVFLFRNHLVICKPRRDSRTDTVSYVFRNMMKLSSIDLNDQVEGDDRAFEVWQEREDSVRKYLLQARTAIIKSSWVKEICGIQQ
